Experimental data from PubChem BioAssay AID256 (DTP/NCI, 2004).
The list is a part of this screen's results and no random one: it is rich in T/C values a quarter to a half above the control, in often repeated tests (any T/C) and in doses without a T/C. Further doses and runs are listed elsewhere. T/C is the treated group as % of the vehicle group. Some entries give survivors of the animals treated and no T/C: the source holds a T/C of zero for them, seemingly a mark for toxic or unscored doses. Some survivor counts are full or nearly so, which does not show that the dose was tolerated: survival well below the control is almost never listed, so the zero probably covers shortened survival too. Counts of survivors are from the toxicity check (mostly the fifth day) where no day follows; animals may have died later. Schedules are NCI's codes, taken here to give the interval after Q, in days (D) or hours (H), and the number of doses after X. Some schedules carry Z or #; the key to these is not given. For survival time, this PubChem deposit counts one and a half times the control or more as active, and values a quarter to a half above the control carry no call in these data; other NCI protocols may use other cut-offs. Some T/C values are followed by the survivors on the day toxicity was checked, most often the fifth; without a count, all were alive then. Some entries were tested several times; their values stand side by side, smallest first.

Test system: CD2F1 mice, L1210 leukemia ip, survival T/C
Test: NCI In Vivo Anticancer Drug Screen. Data for tumor model L1210 Leukemia (intraperitoneal) in CD2F1 (CDF1) mice
Settings: higher T/C = longer survival
Method in brief: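 Vehicle-treated tumor-bearing mice served as controls (C) for compound-treated mice (T). Reported figure is T divided by C.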

[1] = T/C endpoint: mean survival time, dose: 400.0 mg/kg/injection, schedule: Q04DX002 (ip), vehicle: saline with Tween-80

Q: How did the T/C (T/C endpoint: mean survival time, dose: 12.5 mg/kg/injection, schedule: Q01DX009 (ip), vehicle: water) turn out when `NC(=O)c1csc(C2OC(CO)C(O)C2O)n1` (stereo unspecified) was run?
A: 146 % of control

Q: And the T/C (T/C endpoint: mean survival time, dose: 25.0 mg/kg/injection, schedule: Q01DX005 (ip), vehicle: water)?
A: 131 % of control

Q: What about the T/C (T/C endpoint: mean survival time, dose: 37.5 mg/kg/injection, schedule: Q01DX005 (ip), vehicle: water) of the same molecule?
A: 125 % of control

Q: And the T/C (T/C endpoint: mean survival time, dose: 50.0 mg/kg/injection, schedule: Q01DX005 (ip), vehicle: water)?
A: 129 and 136 % of control

Q: And the T/C (T/C endpoint: mean survival time, dose: 75.0 mg/kg/injection, schedule: Q01DX005 (ip), vehicle: water)?
A: 136 % of control

Q: And the T/C (T/C endpoint: mean survival time, dose: 100.0 mg/kg/injection, schedule: Q01DX005 (ip), vehicle: water)?
A: 144, 149, 158, 165 % of control

Q: What about the T/C (T/C endpoint: mean survival time, dose: 200.0 mg/kg/injection, schedule: Q01DX005 (ip), vehicle: water) of the same molecule?
A: 157, 168, 169, 181 % of control

Q: What about the survivor count (T/C endpoint: mean survival time, dose: 600.0 mg/kg/injection, schedule: Q01DX005 (ip), vehicle: water) of the same molecule?
A: 5 of 6

Q: And the survivor count (T/C endpoint: mean survival time, dose: 1200.0 mg/kg/injection, schedule: Q01DX005 (ip), vehicle: water)?
A: 4 of 6

Q: What about the T/C (T/C endpoint: median survival time, dose: 8.0 mg/kg/injection, schedule: Q#A X018 (ip), vehicle: water) of the same molecule?
A: 148 % of control

Q: What about the T/C (T/C endpoint: median survival time, dose: 16.0 mg/kg/injection, schedule: Q01DX009 (ip), vehicle: water) of the same molecule?
A: 141 % of control

Q: And the T/C (T/C endpoint: median survival time, dose: 32.0 mg/kg/injection, schedule: Q01DX005 (iv), vehicle: water)?
A: 144 % of control [9 of 10 alive]

Q: What about the T/C (T/C endpoint: median survival time, dose: 62.5 mg/kg/injection, schedule: Q01DX005 (ip), vehicle: water) of the same molecule?
A: 143 % of control

Q: And the T/C (T/C endpoint: median survival time, dose: 64.0 mg/kg/injection, schedule: Q01DX009 (ip), vehicle: water, evaluated on day 30)?
A: 163 and 165 % of control

Q: What about the T/C (T/C endpoint: median survival time, dose: 64.0 mg/kg/injection, schedule: Q01DX009 (ip), vehicle: water, evaluated on day 60) of the same molecule?
A: 167 and 191 % of control

Q: What about the T/C (T/C endpoint: median survival time, dose: 75.0 mg/kg/injection, schedule: Q01DX005 (ip), vehicle: water) of the same molecule?
A: 143 % of control

Q: And the T/C (T/C endpoint: median survival time, dose: 125.0 mg/kg/injection, schedule: Q01DX005 (ip), vehicle: water)?
A: 145 % of control

Q: What about the T/C (T/C endpoint: median survival time, dose: 128.0 mg/kg/injection, schedule: Q01DX001 (iv), vehicle: water) of the same molecule?
A: 126 % of control

Q: What about the T/C (T/C endpoint: median survival time, dose: 128.0 mg/kg/injection, schedule: Q01DX009 (ip), vehicle: water, evaluated on day 30) of the same molecule?
A: 177 and 185 % of control

Q: What about the T/C (T/C endpoint: median survival time, dose: 128.0 mg/kg/injection, schedule: Q01DX009 (ip), vehicle: water, evaluated on day 60) of the same molecule?
A: 192 and 209 % of control

Q: And the T/C (T/C endpoint: median survival time, dose: 256.0 mg/kg/injection, schedule: Q01DX001 (iv), vehicle: water)?
A: 132 % of control

Q: What about the T/C (T/C endpoint: median survival time, dose: 256.0 mg/kg/injection, schedule: Q01DX009 (ip), vehicle: water, evaluated on day 30) of the same molecule?
A: 204 and 234 % of control

Q: And the T/C (T/C endpoint: median survival time, dose: 256.0 mg/kg/injection, schedule: Q01DX009 (ip), vehicle: water, evaluated on day 60)?
A: 228 and 231 % of control

Q: What about the T/C (T/C endpoint: median survival time, dose: 256.0 mg/kg/injection, schedule: Q04DX003 (ip), vehicle: water) of the same molecule?
A: 148 % of control

Q: And the T/C (T/C endpoint: median survival time, dose: 512.0 mg/kg/injection, schedule: Q01DX001 (ip), vehicle: water)?
A: 128 % of control

Q: What about the T/C (T/C endpoint: median survival time, dose: 512.0 mg/kg/injection, schedule: Q01DX001 (iv), vehicle: water) of the same molecule?
A: 146 % of control

Q: And the T/C (T/C endpoint: median survival time, dose: 512.0 mg/kg/injection, schedule: Q01DX001 (oral), vehicle: water)?
A: 130 % of control

Q: And the T/C (T/C endpoint: median survival time, dose: 512.0 mg/kg/injection, schedule: Q01DX009 (ip), vehicle: water, evaluated on day 30)?
A: 228 and 256 % of control

Q: And the T/C (T/C endpoint: median survival time, dose: 512.0 mg/kg/injection, schedule: Q01DX009 (ip), vehicle: water, evaluated on day 60)?
A: 234 and 247 % of control

Q: What about the T/C (T/C endpoint: median survival time, dose: 1024.0 mg/kg/injection, schedule: Q01DX001 (ip), vehicle: water) of the same molecule?
A: 133 % of control

Q: What about the T/C (T/C endpoint: median survival time, dose: 1024.0 mg/kg/injection, schedule: Q01DX001 (iv), vehicle: water) of the same molecule?
A: 146 % of control

Q: What about the T/C (T/C endpoint: median survival time, dose: 1024.0 mg/kg/injection, schedule: Q01DX001 (oral), vehicle: water) of the same molecule?
A: 146 % of control

Q: And the T/C (T/C endpoint: median survival time, dose: 1024.0 mg/kg/injection, schedule: Q01DX009 (ip), vehicle: water, evaluated on day 30)?
A: 217 and 262 % of control

Q: What about the T/C (T/C endpoint: median survival time, dose: 1024.0 mg/kg/injection, schedule: Q01DX009 (ip), vehicle: water, evaluated on day 60) of the same molecule?
A: 119 and 170 % of control [9 of 10 alive]

Q: What about the survivor count (T/C endpoint: median survival time, dose: 1024.0 mg/kg/injection, schedule: Q#A X018 (ip), vehicle: water) of the same molecule?
A: 3 of 10

Q: What about the survivor count (T/C endpoint: median survival time, dose: 1200.0 mg/kg/injection, schedule: Q01DX005 (ip), vehicle: water) of the same molecule?
A: 0 of 6

Q: And the survivor count (T/C endpoint: median survival time, dose: 2048.0 mg/kg/injection, schedule: Q01DX001 (ip), vehicle: water)?
A: 6 of 10

Q: And the survivor count (T/C endpoint: median survival time, dose: 4096.0 mg/kg/injection, schedule: Q04DX003 (ip), vehicle: water)?
A: 2 of 10

Q: With `COc1ccccc1NC(=O)Oc1ccc2ccccc2c1` as the molecule, how does the survivor count [1] read?
A: 3 of 3

Q: Which survivor count (T/C endpoint: median survival time, dose: 50.0 mg/kg/injection, schedule: Q01DX009 (ip), vehicle: saline with Tween-80) does the source give for `CC(C)N1C(=O)N(Cl)C2C1N(Cl)C(=O)N2Cl` (stereo unspecified) here?
A: 0 of 6

Q: What about the survivor count (T/C endpoint: median survival time, dose: 100.0 mg/kg/injection, schedule: Q01DX009 (ip), vehicle: saline with Tween-80) of the same molecule?
A: 0 of 6

Q: And the survivor count (T/C endpoint: median survival time, dose: 200.0 mg/kg/injection, schedule: Q01DX009 (ip), vehicle: saline with Tween-80)?
A: 0 of 6

Q: And the survivor count (T/C endpoint: median survival time, dose: 400.0 mg/kg/injection, schedule: Q01DX009 (ip), vehicle: saline with Tween-80)?
A: 0 of 6

Q: Which survivor count (T/C endpoint: mean survival time, dose: 100.0 mg/kg/injection, schedule: Q01DX009 (ip), vehicle: saline with Tween-80) does the source give for `CSc1ccc(N=C=C(c2ccccc2)c2ccccc2)cc1` here?
A: 0 of 6

Q: What about the survivor count (T/C endpoint: mean survival time, dose: 200.0 mg/kg/injection, schedule: Q01DX009 (ip), vehicle: saline with Tween-80) of the same molecule?
A: 0 of 6

Q: And the survivor count (T/C endpoint: mean survival time, dose: 400.0 mg/kg/injection, schedule: Q01DX009 (ip), vehicle: saline with Tween-80)?
A: 0 of 6

Q: With `CCCC[P+](C)(CC[P+](C)(c1ccccc1)c1ccccc1)c1ccccc1` (stereo unspecified) as the molecule, how does the survivor count (T/C endpoint: mean survival time, dose: 25.0 mg/kg/injection, schedule: Q04DX002 (ip), vehicle: saline) read?
A: 0 of 3

Q: What about the survivor count (T/C endpoint: mean survival time, dose: 50.0 mg/kg/injection, schedule: Q04DX002 (ip), vehicle: saline) of the same molecule?
A: 0 of 3

Q: What about the survivor count (T/C endpoint: mean survival time, dose: 100.0 mg/kg/injection, schedule: Q04DX002 (ip), vehicle: saline) of the same molecule?
A: 0 of 3

Q: `CNc1nc(-c2ccncc2)nc(N(C)C)n1` was tested. Which survivor count [1] did it give?
A: 0 of 3

Q: `CCN(CCP(c1ccccc1)c1ccccc1)CCP(c1ccccc1)c1ccccc1` was tested. Which T/C (T/C endpoint: mean survival time, dose: 75.0 mg/kg/injection, schedule: Q01DX001 (ip), vehicle: other) did it give?
A: 130 % of control

Q: `C[N+](C)(Cc1ccc(F)cc1)C1c2ccccc2-c2ccccc21` was tested. Which survivor count (T/C endpoint: mean survival time, dose: 100.0 mg/kg/injection, schedule: Q04DX003 (ip), vehicle: saline with Tween-80) did it give?
A: 1 of 6

Q: What about the survivor count (T/C endpoint: mean survival time, dose: 200.0 mg/kg/injection, schedule: Q04DX003 (ip), vehicle: saline with Tween-80) of the same molecule?
A: 0 of 6

Q: What about the survivor count (T/C endpoint: mean survival time, dose: 400.0 mg/kg/injection, schedule: Q04DX003 (ip), vehicle: saline with Tween-80) of the same molecule?
A: 0 of 6

Q: For `COc1cccc2c1C(=O)c1c(O)c3c(c(O)c1C2=O)CC(O)(C(=O)CO)CC3OC1CC(N)C(O)C(C)O1` (stereo unspecified), which T/C (T/C endpoint: mean survival time, dose: 1.25 mg/kg/injection, schedule: Q04DX003 (ip), vehicle: saline) is on record?
A: 137 % of control

Q: And the T/C (T/C endpoint: mean survival time, dose: 2.5 mg/kg/injection, schedule: Q04DX003 (ip), vehicle: saline, evaluated on day 30)?
A: 131 % of control

Q: What about the T/C (T/C endpoint: mean survival time, dose: 2.5 mg/kg/injection, schedule: Q04DX003 (ip), vehicle: saline, evaluated on day 60) of the same molecule?
A: 133 % of control

Q: And the T/C (T/C endpoint: mean survival time, dose: 4.5 mg/kg/injection, schedule: Q01DX009 (ip), vehicle: water)?
A: 125 % of control

Q: What about the T/C (T/C endpoint: mean survival time, dose: 5.0 mg/kg/injection, schedule: Q04DX003 (ip), vehicle: saline, evaluated on day 30) of the same molecule?
A: 140 % of control

Q: And the T/C (T/C endpoint: mean survival time, dose: 5.0 mg/kg/injection, schedule: Q04DX003 (ip), vehicle: saline, evaluated on day 60)?
A: 132 % of control

Q: And the T/C (T/C endpoint: mean survival time, dose: 9.0 mg/kg/injection, schedule: Q01DX009 (ip), vehicle: water)?
A: 138 % of control

Q: And the T/C (T/C endpoint: mean survival time, dose: 18.0 mg/kg/injection, schedule: Q01DX009 (ip), vehicle: water)?
A: 125 % of control

Q: And the T/C (T/C endpoint: mean survival time, dose: 40.0 mg/kg/injection, schedule: Q04DX003 (ip), vehicle: saline)?
A: 127 % of control

Q: What about the T/C (T/C endpoint: mean survival time, dose: 50.0 mg/kg/injection, schedule: Q01DX009 (ip), vehicle: water) of the same molecule?
A: 140 % of control

Q: What about the T/C (T/C endpoint: mean survival time, dose: 72.0 mg/kg/injection, schedule: Q01DX009 (ip), vehicle: water) of the same molecule?
A: 134 % of control [5 of 6 alive]

Q: What about the survivor count (T/C endpoint: mean survival time, dose: 144.0 mg/kg/injection, schedule: Q01DX009 (ip), vehicle: water) of the same molecule?
A: 6 of 6
